Test results as given in publication PMC11189303.

Protein sequences, listed by entry. Tags and fused reporters are not part of them.
UniProt O60826: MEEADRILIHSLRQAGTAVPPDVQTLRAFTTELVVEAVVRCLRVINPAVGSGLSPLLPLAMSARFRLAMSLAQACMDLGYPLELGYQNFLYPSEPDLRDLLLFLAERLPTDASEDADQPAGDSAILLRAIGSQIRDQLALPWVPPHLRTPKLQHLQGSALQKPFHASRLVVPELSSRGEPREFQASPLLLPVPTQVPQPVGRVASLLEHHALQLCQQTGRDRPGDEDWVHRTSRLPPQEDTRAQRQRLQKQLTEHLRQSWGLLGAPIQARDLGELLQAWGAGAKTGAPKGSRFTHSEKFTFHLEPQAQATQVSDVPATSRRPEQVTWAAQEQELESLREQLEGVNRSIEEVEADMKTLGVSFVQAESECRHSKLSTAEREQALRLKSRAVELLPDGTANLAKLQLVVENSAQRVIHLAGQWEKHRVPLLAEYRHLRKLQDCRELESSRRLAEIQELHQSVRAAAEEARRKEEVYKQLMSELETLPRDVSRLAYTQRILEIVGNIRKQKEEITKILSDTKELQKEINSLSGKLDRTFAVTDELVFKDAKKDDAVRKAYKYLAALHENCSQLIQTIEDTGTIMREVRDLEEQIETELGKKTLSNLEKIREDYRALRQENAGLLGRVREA

molecular target: CCDC22 (human) (UniProt O60826); assay: affinity purification with mass spectrometry; MAC-tagged bait stably expressed in Flp-In T-REx 293 (tetracycline 24 h); cleared lysate (50 mM HEPES pH 8.0, 150 mM NaCl, 0.5% IGEPAL) on Strep-Tactin beads, eluted with biotin; high-confidence interactions by SAINTexpress (BFDR < 0.05) and CRAPome against MAC-tagged GFP controls

| Binder | binding |
| --- | --- |
| OFD1 (protein, UniProt O75665 1-1012) MMAQSNMFTVADVLSQDELRKKLYQTFKDRGILDTLKTQLRNQLIHELMHPVLSGELQPRSISVEGSSLLIGASNSLVADHLQRCGYEYSLSVFFPESGLAKEKVFTMQDLLQLIKINPTSSLYKSLVSGSDKENQKGFLMHFLKELAEYHQAKESCNMETQTSSTFNRDSLAEKLQLIDDQFADAYPQRIKFESLEIKLNEYKREIEEQLRAEMCQKLKFFKDTEIAKIKMEAKKKYEKELTMFQNDFEKACQAKSEALVLREKSTLERIHKHQEIETKEIYAQRQLLLKDMDLLRGREAELKQRVEAFELNQKLQEEKHKSITEALRRQEQNIKSFEETYDRKLKNELLKYQLELKDDYIIRTNRLIEDERKNKEKAVHLQEELIAINSKKEELNQSVNRVKELELELESVKAQSLAITKQNHMLNEKVKEMSDYSLLKEEKLELLAQNKLLKQQLEESRNENLRLLNRLAQPAPELAVFQKELRKAEKAIVVEHEEFESCRQALHKQLQDEIEHSAQLKAQILGYKASVKSLTTQVADLKLQLKQTQTALENEVYCNPKQSVIDRSVNGLINGNVVPCNGEISGDFLNNPFKQENVLARMVASRITNYPTAWVEGSSPDSDLEFVANTKARVKELQQEAERLEKAFRSYHRRVIKNSAKSPLAAKSPPSLHLLEAFKNITSSSPERHIFGEDRVVSEQPQVGTLEERNDVVEALTGSAASRLRGGTSSRRLSSTPLPKAKRSLESEMYLEGLGRSHIASPSPCPDRMPLPSPTESRHSLSIPPVSSPPEQKVGLYRRQTELQDKSEFSDVDKLAFKDNEEFESSFESAGNMPRQLEMGGLSPAGDMSHVDAAAAAVPLSYQHPSVDQKQIEEQKEEEKIREQQVKERRQREERRQSNLQEVLERERRELEKLYQERKMIEESLKIKIKKELEMENELEMSNQEIKDKSAHSENPLEKYMKIIQQEQDQESADKSSKKMVQEGSLVDTLQSSDKVESLTGFSHEELDDSW | binds |
| DZIP1 (protein, UniProt Q86YF9 1-867) MQAEAADWFSSMPFQKHVYYPLASGPEGPDVAVAAAAAGAASMACAPPSAASGPLPFFQFRPRLESVDWRRLSAIDVDKVAGAVDVLTLQENIMNITFCKLEDEKCPHCQSGVDPVLLKLIRLAQFTIEYLLHSQEFLTSQLHTLEERLRLSHCDGEQSKKLLTKQAGEIKTLKEECKRRKKMISTQQLMIEAKANYYQCHFCDKAFMNQAFLQSHIQRRHTEENSHFEYQKNAQIEKLRSEIVVLKEELQLTRSELEAAHHASAVRFSKEYEMQKTKEEDFLKLFDRWKEEEKEKLVDEMEKVKEMFMKEFKELTSKNSALEYQLSEIQKSNMQIKSNIGTLKDAHEFKEDRSPYPQDFHNVMQLLDSQESKWTARVQAIHQEHKKEKGRLLSHIEKLRTSMIDDLNASNVFYKKRIEELGQRLQEQNELIITQRQQIKDFTCNPLNSISEPKGNPLAWQAFESQPAAPAVPMNAPALHTLETKSSLPMVHEQAFSSHILEPIEELSEEEKGRENEQKLNNNKMHLRKALKSNSSLTKGLRTMVEQNLMEKLETLGINADIRGISSDQLHRVLKSVESERHKQEREIPNFHQIREFLEHQVSCKIEEKALLSSDQCSVSQMDTLSTGEVPKMIQLPSKNRQLIRQKAVSTDRTSVPKIKKNVMEDPFPRKSSTITTPPFSSEEEQEDDDLIRAYASPGPLPVPPPQNKGSFGKNTVKSDADGTEGSEIEDTDDSPKPAGVAVKTPTEKVEKMFPHRKNVNKPVGGTNVPEMFIKKEELQELKCADVEDEDWDISSLEEEISLGKKSGKEQKEPPPAKNEPHFAHVLNAWGAFNPKGPKGEGLQENESSTLKSSLVTVTDWSDTSDV | binds |
| VPS33A (protein, UniProt Q96AX1 1-596) MAAHLSYGRVNLNVLREAVRRELREFLDKCAGSKAIVWDEYLTGPFGLIAQYSLLKEHEVEKMFTLKGNRLPAADVKNIIFFVRPRLELMDIIAENVLSEDRRGPTRDFHILFVPRRSLLCEQRLKDLGVLGSFIHREEYSLDLIPFDGDLLSMESEGAFKECYLEGDQTSLYHAAKGLMTLQALYGTIPQIFGKGECARQVANMMIRMKREFTGSQNSIFPVFDNLLLLDRNVDLLTPLATQLTYEGLIDEIYGIQNSYVKLPPEKFAPKKQGDGGKDLPTEAKKLQLNSAEELYAEIRDKNFNAVGSVLSKKAKIISAAFEERHNAKTVGEIKQFVSQLPHMQAARGSLANHTSIAELIKDVTTSEDFFDKLTVEQEFMSGIDTDKVNNYIEDCIAQKHSLIKVLRLVCLQSVCNSGLKQKVLDYYKREILQTYGYEHILTLHNLEKAGLLKPQTGGRNNYPTIRKTLRLWMDDVNEQNPTDISYVYSGYAPLSVRLAQLLSRPGWRSIEEVLRILPGPHFEERQPLPTGLQKKRQPGENRVTLIFFLGGVTFAEIAALRFLSQLEDGGTEYVIATTKLMNGTSWIEALMEKPF | binds |
| VPS33B (protein, UniProt Q9H267 1-617) MAFPHRPDAPELPDFSMLKRLARDQLIYLLEQLPGKKDLFIEADLMSPLDRIANVSILKQHEVDKLYKVENKPALSSNEQLCFLVRPRIKNMRYIASLVNADKLAGRTRKYKVIFSPQKFYACEMVLEEEGIYGDVSCDEWAFSLLPLDVDLLSMELPEFFRDYFLEGDQRWINTVAQALHLLSTLYGPFPNCYGIGRCAKMAYELWRNLEEEEDGETKGRRPEIGHIFLLDRDVDFVTALCSQVVYEGLVDDTFRIKCGSVDFGPEVTSSDKSLKVLLNAEDKVFNEIRNEHFSNVFGFLSQKARNLQAQYDRRRGMDIKQMKNFVSQELKGLKQEHRLLSLHIGACESIMKKKTKQDFQELIKTEHALLEGFNIRESTSYIEEHIDRQVSPIESLRLMCLLSITENGLIPKDYRSLKTQYLQSYGPEHLLTFSNLRRAGLLTEQAPGDTLTAVESKVSKLVTDKAAGKITDAFSSLAKRSNFRAISKKLNLIPRVDGEYDLKVPRDMAYVFGGAYVPLSCRIIEQVLERRSWQGLDEVVRLLNCSDFAFTDMTKEDKASSESLRLILVVFLGGCTFSEISALRFLGREKGYRFIFLTTAVTNSARLMEAMSEVKA | binds |
| VIPAS39 (protein, UniProt Q9H9C1 1-493) MNRTKGDEEEYWNSSKFKAFTFDDEDDELSQLKESKRAVNSLRDFVDDDDDDDLERVSWSGEPVGSISWSIRETAGNSGSTHEGREQLKSRNSFSSYAQLPKPTSTYSLSSFFRGRTRPGSFQSLSDALSDTPAKSYAPELGRPKGEYRDYSNDWSPSDTVRRLRKGKVCSLERFRSLQDKLQLLEEAVSMHDGNVITAVLIFLKRTLSKEILFRELEVRQVALRHLIHFLKEIGDQKLLLDLFRFLDRTEELALSHYREHLNIQDPDKRKEFLKTCVGLPFSAEDSAHIQDHYTLLERQIIIEANDRHLESAGQTEIFRKHPRKASILNMPLVTTLFYSCFYHYTEAEGTFSSPVNLKKTFKIPDKQYVLTALAARAKLRAWNDVDALFTTKNWLGYTKKRAPIGFHRVVEILHKNNAPVQILQEYVNLVEDVDTKLNLATKFKCHDVVIDTYRDLKDRQQLLAYRSKVDKGSAEEEKIDALLSSSQIRWKN | binds |
| NDE1 (protein, UniProt Q9NXR1 1-335) MEDSGKTFSSEEEEANYWKDLAMTYKQRAENTQEELREFQEGSREYEAELETQLQQIETRNRDLLSENNRLRMELETIKEKFEVQHSEGYRQISALEDDLAQTKAIKDQLQKYIRELEQANDDLERAKRATIMSLEDFEQRLNQAIERNAFLESELDEKENLLESVQRLKDEARDLRQELAVQQKQEKPRTPMPSSVEAERTDTAVQATGSVPSTPIAHRGPSSSLNTPGSFRRGLDDSTGGTPLTPAARISALNIVGDLLRKVGALESKLASCRNLVYDQSPNRTGGPASGRSSKNRDGGERRPSSTSVPLGDKGLDTSCRWLSKSTTRSSSSC | binds |

No constants are given. Whether binding was seen depends on the method and setting. Binding seen in cells or lysates may run through a third protein. Here binding means that the protein was enriched with, or labelled near, the bait; the list need not be complete.
